Results on eleven molecules are retold here after PubChem BioAssay AID290 (DTP/NCI, 2004).

SMILES strings stand for the structures. The list does not hold the whole screen: it is rich in T/C values a quarter to a half above the control, in often repeated tests (any T/C) and in doses without a T/C. Further doses and runs are listed elsewhere. T/C: endpoint of the treated group in % of that of the vehicle group. Schedule codes are those of the source, read here as Q, the interval in days (D) or hours (H), X, the number of doses. Some T/C values carry the count of animals alive at the toxicity check (mostly the fifth day); without a count, all were alive then. Some doses were run more than once; their values stand side by side, smallest first. Some doses have a count of surviving animals in place of a T/C: the source holds a T/C of zero for them, seemingly a mark for toxic or unscored doses. Some survivor counts are full or nearly so, which does not show that the dose was tolerated: the source hardly ever lists a survival T/C far under the control, and the zero likely stands for such cases as well. Survivors were counted at the toxicity check, usually on the fifth day, unless a day is given; later deaths do not show.

In this experiment the test system is mice, P1798 lymphosarcoma sc, survival or tumor weight T/C. The experiment is described as follows: NCI In Vivo Anticancer Drug Screen. Data for tumor model P1798 Lymphosarcoma (subcutaneous) in unknown mice. On the procedure:
The antitumor activity of compounds was measured in mice bearing transplantable tumors. Survival or tumor size were measured and the results are expressed as the measurement made in the treated group (T) divided by the measurement made in the vehicle treated control group (C). The tumor model used in this assay is P1798 Lymphosarcoma (subcutaneous) in unknown mice

The mark [1] stands for this setting: T/C endpoint: mean tumor weight, dose: 75.0 mg/kg/injection, schedule: Q01DX010 (ip), vehicle: carboxymethylcellulose (CMC), higher T/C = larger tumour.

In the case of `S=C(N=Nc1ccccc1)NNc1ccccc1`, the survivor count is reported as 4 of 10 under setting [1]; 0 of 10 (T/C endpoint: mean tumor weight, dose: 150.0 mg/kg/injection, schedule: Q01DX010 (ip), vehicle: carboxymethylcellulose (CMC), higher T/C = larger tumour); 0 of 10 (T/C endpoint: mean tumor weight, dose: 300.0 mg/kg/injection, schedule: Q01DX010 (ip), vehicle: carboxymethylcellulose (CMC), higher T/C = larger tumour).

In the case of `O=C(O)CCCc1ccc(N(CCCl)CCCl)cc1`, the survivor count (T/C endpoint: mean tumor weight, dose: 50.0 mg/kg/injection, schedule: Q01DX010 (ip), vehicle: carboxymethylcellulose (CMC), higher T/C = larger tumour) is recorded as 6 of 10.

Consider `S=P(N1CC1)(N1CC1)N1CC1`, for which the survivor count (T/C endpoint: mean tumor weight, dose: 5.0 mg/kg/injection, schedule: Q01DX010 (ip), vehicle: saline, higher T/C = larger tumour) is 2 of 10; the survivor count (T/C endpoint: median survival time, dose: 6.0 mg/kg/injection, schedule: Q01DX010 (sc), vehicle: water, higher T/C = longer survival) is given as 10 of 10; the survivor count (T/C endpoint: median survival time, dose: 12.0 mg/kg/injection, schedule: Q01DX010 (sc), vehicle: water, higher T/C = longer survival) is listed as 10 of 10.

`CCC(=O)O[C@H]1CC[C@H]2[C@@H]3CCC4=CC(=O)CC[C@]4(C)[C@H]3CC[C@]12C`: the T/C reads like this: (T/C endpoint: mean tumor weight, dose: 60.0 mg/kg/injection, schedule: Q01DX010 (sc), vehicle: steroid suspending solution, evaluated on day 14, higher T/C = larger tumour) 141 % of control; (T/C endpoint: mean tumor weight, dose: 300.0 mg/kg/injection, schedule: Q01DX010 (sc), vehicle: steroid suspending solution, evaluated on day 14, higher T/C = larger tumour) 127 % of control; (T/C endpoint: mean tumor weight, dose: 1500.0 mg/kg/injection, schedule: Q01DX010 (sc), vehicle: steroid suspending solution, evaluated on day 14, higher T/C = larger tumour) 133 % of control.

As to `Cn1c(O)c(N=NC(N)=S)c2ccccc21`, the survivor count (T/C endpoint: mean tumor weight, dose: 200.0 mg/kg/injection, schedule: Q01DX011 (ip), vehicle: carboxymethylcellulose (CMC), higher T/C = larger tumour) is 5 of 10.

As for `CS(=O)(=O)OCCCCOS(C)(=O)=O`, the survivor count reads like this: (T/C endpoint: mean survival time, dose: 0.5 mg/kg/injection, schedule: Q01DX010 (ip), vehicle: methylcellulose (MC), higher T/C = longer survival) 10 of 10; (T/C endpoint: mean survival time, dose: 1.0 mg/kg/injection, schedule: Q01DX010 (ip), vehicle: methylcellulose (MC), higher T/C = longer survival) 10 of 10; (T/C endpoint: mean survival time, dose: 2.0 mg/kg/injection, schedule: Q01DX010 (ip), vehicle: methylcellulose (MC), higher T/C = longer survival) 10 of 10; (T/C endpoint: mean survival time, dose: 4.0 mg/kg/injection, schedule: Q01DX010 (ip), vehicle: methylcellulose (MC), higher T/C = longer survival) 10 of 10; (T/C endpoint: mean tumor weight, dose: 32.0 mg/kg/injection, schedule: Q01DX010 (ip), vehicle: methylcellulose (MC), higher T/C = larger tumour) 3 of 10.

As for `CN(C)c1ccc(/C=C/c2ccnc3ccccc23)cc1`, the survivor count was 4 of 10 (T/C endpoint: mean tumor weight, dose: 31.2 mg/kg/injection, schedule: Q01DX010 (ip), vehicle: water, higher T/C = larger tumour); 0 of 10 (T/C endpoint: mean tumor weight, dose: 62.5 mg/kg/injection, schedule: Q01DX010 (ip), vehicle: water, higher T/C = larger tumour); 0 of 10 (T/C endpoint: mean tumor weight, dose: 125.0 mg/kg/injection, schedule: Q01DX010 (ip), vehicle: water, higher T/C = larger tumour); 0 of 10 (T/C endpoint: mean tumor weight, dose: 250.0 mg/kg/injection, schedule: Q01DX010 (ip), vehicle: water, higher T/C = larger tumour).

Regarding `S=c1nc[nH]c2nc[nH]c12`, the T/C is 74 % of control (T/C endpoint: mean tumor weight, dose: 25.0 mg/kg/injection, schedule: Q01DX010 (ip), vehicle: other, evaluated on day 14, higher T/C = larger tumour); 69 and 77 % of control [9 of 10 alive] (T/C endpoint: mean tumor weight, dose: 25.0 mg/kg/injection, schedule: Q01DX010 (ip), vehicle: other, evaluated on day 20, higher T/C = larger tumour); 34 [9 of 10 alive], 53, 62 [9 of 10 alive], 71 % of control (T/C endpoint: mean tumor weight, dose: 37.5 mg/kg/injection, schedule: Q01DX010 (ip), vehicle: other, evaluated on day 14, higher T/C = larger tumour); 61 % of control (T/C endpoint: mean tumor weight, dose: 50.0 mg/kg/injection, schedule: Q01DX010 (ip), vehicle: other, evaluated on day 14, higher T/C = larger tumour); 101 % of control [9 of 10 alive] (T/C endpoint: mean tumor weight, dose: 50.0 mg/kg/injection, schedule: Q01DX010 (ip), vehicle: other, evaluated on day 20, higher T/C = larger tumour); 134 % of control [8 of 10 alive] (T/C endpoint: mean tumor weight, dose: 68.0 mg/kg/injection, schedule: Q01DX001 (ip), vehicle: carboxymethylcellulose (CMC), evaluated on day 12, higher T/C = larger tumour). Also, the T/C (T/C endpoint: mean tumor weight, dose: 75.0 mg/kg/injection, schedule: Q01DX010 (ip), vehicle: other, evaluated on day 14, higher T/C = larger tumour) is 5 [7 of 10 alive], 31 [9 of 10 alive], 49 % of control [8 of 10 alive]. Besides, the survivor count is, setting by setting: (T/C endpoint: mean tumor weight, dose: 25.0 mg/kg/injection, schedule: Q01DX010 (ip), vehicle: other, higher T/C = larger tumour) 0 of 10; (T/C endpoint: mean tumor weight, dose: 50.0 mg/kg/injection, schedule: Q01DX010 (ip), vehicle: other, higher T/C = larger tumour) 0 of 10 and 4 of 10; (T/C endpoint: mean tumor weight, dose: 75.0 mg/kg/injection, schedule: Q01DX010 (ip), vehicle: other, higher T/C = larger tumour) 1 of 10; (T/C endpoint: mean tumor weight, dose: 100.0 mg/kg/injection, schedule: Q01DX010 (ip), vehicle: other, higher T/C = larger tumour) 0 of 10 and 4 of 10; (T/C endpoint: mean tumor weight, dose: 135.0 mg/kg/injection, schedule: Q01DX001 (ip), vehicle: carboxymethylcellulose (CMC), higher T/C = larger tumour) 6 of 10; (T/C endpoint: mean tumor weight, dose: 150.0 mg/kg/injection, schedule: Q01DX010 (ip), vehicle: other, higher T/C = larger tumour) 0 of 10. In addition, the survivor count (T/C endpoint: mean tumor weight, dose: 300.0 mg/kg/injection, schedule: Q01DX010 (ip), vehicle: other, higher T/C = larger tumour) is 0 of 10.

In the case of `CSc1ncnc2nc[nH]c12`, where the note is “T/C endpoint: mean tumor weight, dose: 200.0 mg/kg/injection, schedule: Q01DX010 (ip), vehicle: carboxymethylcellulose (CMC), higher T/C = larger tumour”, the survivor count was 2 of 10.

`Nc1nc(SCc2ccccc2)c2[nH]cnc2n1`: the survivor count runs as follows: (T/C endpoint: mean tumor weight, dose: 18.75 mg/kg/injection, schedule: Q01DX010 (ip), vehicle: carboxymethylcellulose (CMC), higher T/C = larger tumour) 5 of 10; (T/C endpoint: mean tumor weight, dose: 37.5 mg/kg/injection, schedule: Q01DX010 (ip), vehicle: carboxymethylcellulose (CMC), higher T/C = larger tumour) 0 of 10; under setting [1], 0 of 10.

Regarding `O=C(Nc1ccc(C2=NCCCN2)cc1)c1ccc(NC(=O)c2ccc(C3=NCCCN3)cc2)cc1`, the survivor count (T/C endpoint: mean tumor weight, dose: 16.0 mg/kg/injection, schedule: Q01DX010 (ip), vehicle: carboxymethylcellulose (CMC), higher T/C = larger tumour) was 0 of 10.
